PubChem BioAssay AID330 (DTP/NCI, 2004)
The list is a part of this screen's results and no random one: it gathers tests that were run many times, whatever their T/C, doses with no T/C, and many T/C values between a quarter and a half above the control. Further doses and runs are listed elsewhere. T/C is the treated group as % of the vehicle group. Some doses have a count of surviving animals in place of a T/C: the source files T/C as zero there, which appears to mark a toxic dose or a test without result, not a measured value. Some survivor counts are full or nearly so, which does not show that the dose was tolerated: survival well below the control is almost never listed, so the zero probably covers shortened survival too. Survivors were counted at the toxicity check, usually on the fifth day, unless a day is given; later deaths do not show. Schedules are NCI's codes, taken here to give the interval after Q, in days (D) or hours (H), and the number of doses after X. Some entries hold several experiments; their values stand side by side, smallest first. For survival time, the PubChem record calls one and a half times the control and up active, and a quarter to a half above the control has no call in these data; cut-offs in other NCI protocols can differ. Some T/C values are followed by the survivors on the day toxicity was checked, most often the fifth; without a count, all were alive then. Additions like (4×) count equal records among those shown.

Test system: P388 leukemia ip, CD2F1 mice, survival T/C
Assay: NCI In Vivo Anticancer Drug Screen. Data for tumor model P388 Leukemia (intraperitoneal) in CD2F1 (CDF1) mice
Settings: T/C endpoint: median survival time, higher T/C = longer survival
[1] = dose: 25.0 mg/kg/injection, schedule: Q01DX009 (ip), vehicle: Klucel (hydroxypropylcellulose) (HPC)
[2] = dose: 50.0 mg/kg/injection, schedule: Q01DX005 (ip), vehicle: Klucel (hydroxypropylcellulose) (HPC)
[3] = dose: 50.0 mg/kg/injection, schedule: Q04DX003 (ip), vehicle: Klucel (hydroxypropylcellulose) (HPC)
[4] = dose: 100.0 mg/kg/injection, schedule: Q01DX005 (ip), vehicle: Klucel (hydroxypropylcellulose) (HPC)
[5] = dose: 100.0 mg/kg/injection, schedule: Q01DX009 (ip), vehicle: Klucel (hydroxypropylcellulose) (HPC)
[6] = dose: 100.0 mg/kg/injection, schedule: Q04DX003 (ip), vehicle: Klucel (hydroxypropylcellulose) (HPC)
[7] = dose: 200.0 mg/kg/injection, schedule: Q01DX005 (ip), vehicle: Klucel (hydroxypropylcellulose) (HPC)
[8] = dose: 200.0 mg/kg/injection, schedule: Q01DX009 (ip), vehicle: Klucel (hydroxypropylcellulose) (HPC)
[9] = dose: 200.0 mg/kg/injection, schedule: Q04DX003 (ip), vehicle: Klucel (hydroxypropylcellulose) (HPC)
[10] = dose: 400.0 mg/kg/injection, schedule: Q01DX001 (ip), vehicle: Klucel (hydroxypropylcellulose) (HPC)
[11] = dose: 400.0 mg/kg/injection, schedule: Q04DX002 (ip), vehicle: Klucel (hydroxypropylcellulose) (HPC)
[12] = dose: 400.0 mg/kg/injection, schedule: Q04DX003 (ip), vehicle: Klucel (hydroxypropylcellulose) (HPC)

CCOc1c(N=Nc2cccc(Cl)c2)c(C)nn1C(=S)S
survivor count (dose: 60.0 mg/kg/injection, schedule: Q01DX005 (ip), vehicle: Klucel + Tween-80): 0 of 6 and 1 of 6 | survivor count (dose: 120.0 mg/kg/injection, schedule: Q01DX005 (ip), vehicle: Klucel + Tween-80): 0 of 6 | survivor count (dose: 240.0 mg/kg/injection, schedule: Q01DX005 (ip), vehicle: Klucel + Tween-80): 0 of 6

COc1cccc2c1C(=N)c1c(O)c3c(c(O)c1C2=O)CC(O)(C(=O)CO)CC3OC1CC(N2CCOCC2)C(O)C(C)O1 (configuration not stated)
T/C (dose: 0.5 mg/kg/injection, schedule: Q04DX003 (ip), vehicle: water): 142 % of control | survivor count (dose: 2.0 mg/kg/injection, schedule: Q04DX003 (ip), vehicle: water): 6 of 6 on day 9 | survivor count (dose: 6.25 mg/kg/injection, schedule: Q04DX003 (ip), vehicle: distilled water + Tween-80): 2 of 6 on day 9 | survivor count (dose: 12.5 mg/kg/injection, schedule: Q04DX003 (ip), vehicle: distilled water + Tween-80): 0 of 6 on day 9

CN(C)c1nc(N(C)C)nc(N(C)C)n1
T/C (dose: 25.0 mg/kg/injection, schedule: Q01DX005 (ip), vehicle: Klucel (hydroxypropylcellulose) (HPC)): 87, 89, 91, 93, 94, 95 [5 of 6 alive], 96, 98 (2×), 100 (4×), 101, 101 [5 of 6 alive], 102 (4×), 103 (3×), 105 (2×), 107 (2×), 108 (2×), 108 [5 of 6 alive], 110, 111 (4×), 114, 117 % of control | T/C [1]: 89, 91 [5 of 6 alive], 93, 94, 95, 98, 99 (4×), 100 (5×), 102 (2×), 103 (5×), 104 (2×), 106, 108, 111, 112, 114, 118, 119, 121 (2×), 123, 139 % of control | survivor count [1]: 3 of 3 | T/C (dose: 50.0 mg/kg/injection, schedule: Q01DX001 (ip), vehicle: Klucel (hydroxypropylcellulose) (HPC)): 86, 95, 96, 97, 100 (6×), 101 (4×), 103, 104 (2×), 105, 106, 107 (4×), 108 (2×), 110 (2×), 111 [5 of 6 alive], 116, 118, 120, 121 % of control | T/C [2]: 90, 94, 97, 98, 99 (2×), 100 (3×), 101 (3×), 102 (4×), 102 [5 of 6 alive], 103, 105, 107, 108 (4×), 109 (2×), 110 (2×), 111 (2×), 112 (4×), 113 % of control | survivor count [2]: 3 of 3 | T/C (dose: 50.0 mg/kg/injection, schedule: Q01DX009 (ip), vehicle: Klucel (hydroxypropylcellulose) (HPC)): 90, 93, 98, 100 (2×), 103 (4×), 104 (2×), 105, 107 (3×), 108 (4×), 109 (2×), 110, 111, 112 (2×), 113 (2×), 114, 118, 119, 120, 122, 123, 126, 127, 130 % of control | T/C (dose: 50.0 mg/kg/injection, schedule: Q04DX002 (ip), vehicle: Klucel (hydroxypropylcellulose) (HPC)): 88, 89, 91, 92, 94, 95, 95 [2 of 3 alive], 97 (2×), 98, 99 (3×), 100 (2×), 101 (2×), 102 (3×), 103 (2×), 104, 105 (3×), 106, 110, 113, 115, 116 (2×), 117, 120, 123 % of control | T/C [3]: 88, 95, 96, 99, 100 (7×), 101 (2×), 102 (2×), 104, 105 (3×), 106 (5×), 107 (2×), 108 (3×), 109 (4×), 115 % of control | survivor count [3]: 5 of 6, 3 of 3, 6 of 6 | T/C (dose: 100.0 mg/kg/injection, schedule: Q01DX001 (ip), vehicle: Klucel (hydroxypropylcellulose) (HPC)): 87, 95 (2×), 97, 98, 99, 100 (4×), 101 (3×), 102, 103 (2×), 104 (3×), 106 (3×), 107 (3×), 109 (2×), 110 (2×), 115, 117, 119 % of control | T/C [4]: 89, 92 (2×), 97, 99, 100, 102, 103, 105 (3×), 106 (2×), 108 (2×), 109, 110, 111, 112, 115, 116, 117 (2×), 118, 120 (3×), 121 (2×), 123, 127, 127 [2 of 3 alive], 136, 151 % of control | survivor count [4]: 1 of 3 and 6 of 6 | T/C [5]: 86 (2×), 89, 90, 93 [2 of 3 alive], 95, 99, 100, 101, 102 (3×), 103, 105, 107, 108 (2×), 109, 110, 111, 112, 113 (3×), 115 [5 of 6 alive], 117, 118 (2×), 123, 127, 128, 130, 131, 137 % of control | survivor count [5]: 0 of 3 and 3 of 3 | T/C (dose: 100.0 mg/kg/injection, schedule: Q04DX002 (ip), vehicle: Klucel (hydroxypropylcellulose) (HPC)): 91, 93, 95 (2×), 97, 100 (5×), 101 (2×), 102, 103 (3×), 104 (4×), 105 (3×), 107 (2×), 108 (3×), 109, 111, 114, 115 (2×), 117, 120 % of control | T/C [6]: 87, 88, 97, 98, 99, 100 (4×), 103 (4×), 105 (5×), 109, 110 (2×), 111, 112, 114, 115, 116, 117 (2×), 119 (3×), 120, 122, 124, 139 % of control | survivor count [6]: 3 of 3 and 6 of 6 | T/C (dose: 200.0 mg/kg/injection, schedule: Q01DX001 (ip), vehicle: Klucel (hydroxypropylcellulose) (HPC)): 87 [5 of 6 alive], 91, 98, 99, 100 (3×), 101, 102 (2×), 103, 104 (4×), 105 (3×), 106, 107, 109 (2×), 114 (2×), 117 (2×), 118, 119, 123 (2×), 127, 130 % of control | T/C [7]: 87, 92, 103 [2 of 3 alive], 111 (2×), 112, 116, 117, 123, 125, 166 % of control | survivor count [7]: 1 of 3, 2 of 6, 2 of 3, 4 of 6, 5 of 6, 3 of 3, 6 of 6 | T/C [8]: 89, 89 [5 of 6 alive], 90, 93, 95 [5 of 6 alive], 99, 112, 138 % of control | survivor count [8]: 1 of 3, 2 of 3, 4 of 6, 3 of 4, 5 of 6, 3 of 3, 6 of 6 | survivor count (dose: 200.0 mg/kg/injection, schedule: Q01DX009 (ip), vehicle: saline with Tween-80): 5 of 6 and 6 of 6 | T/C (dose: 200.0 mg/kg/injection, schedule: Q04DX002 (ip), vehicle: Klucel (hydroxypropylcellulose) (HPC)): 86 [5 of 6 alive], 93, 97, 100 (3×), 101, 101 [2 of 3 alive], 102, 103, 104, 107, 109 (2×), 110, 112 (2×), 112 [5 of 6 alive], 113 (2×), 114 (2×), 115, 116 (2×), 117 (2×), 117 [5 of 6 alive], 118 (2×), 120, 121 (2×), 123, 124 % of control | T/C [9]: 87, 92, 94, 99, 100, 103, 106, 109 (3×), 110, 112 (2×), 113, 114, 116, 117, 118, 121, 122, 125 (3×), 126, 128, 129 (4×), 135, 136, 139 (2×), 145, 148 % of control | survivor count [9]: 3 of 3 and 6 of 6 | survivor count (dose: 300.0 mg/kg/injection, schedule: Q01DX005 (ip), vehicle: Klucel (hydroxypropylcellulose) (HPC)): 4 of 6 | T/C [10]: 98, 100, 100 [5 of 6 alive], 104, 104 [2 of 3 alive], 105, 107 [5 of 6 alive], 109, 110, 112, 114, 115, 118, 119, 122, 157 % of control | survivor count [10]: 1 of 3, 2 of 6, 3 of 6, 2 of 3, 5 of 6, 3 of 3, 6 of 6 | survivor count (dose: 400.0 mg/kg/injection, schedule: Q01DX009 (ip), vehicle: Klucel (hydroxypropylcellulose) (HPC)): 1 of 6 | T/C [11]: 92, 93, 97, 101, 103, 106, 110 [5 of 6 alive], 111 [5 of 6 alive], 116 (2×), 123, 125 % of control | survivor count [11]: 0 of 3, 0 of 6, 1 of 3, 3 of 6, 2 of 3, 4 of 6, 5 of 6, 3 of 3, 6 of 6 | T/C [12]: 86 [2 of 3 alive], 87, 91, 92, 96, 102, 106, 112 [5 of 6 alive], 113, 114, 138 % of control | survivor count [12]: 1 of 3, 3 of 6, 2 of 3, 4 of 6, 5 of 6, 3 of 3, 6 of 6
